How the values were obtained:
[1] = 15N SABRE-SHEATH hyperpolarization of neat liquids with Ir catalyst; details: for ^15N T1 9.4 T / ^15N effective T1 μT / ^15N ε @ 9.4 T (SABRE-SHEATH signal enhancement): ~90 mM catalyst; for ^15N effective T1 μT: microTesla field of the shield; for ^15N ε @ 9.4 T (SABRE-SHEATH signal enhancement): neat liquid, listed as 1 >90% para-H2, other rows 65-75% para-H2
[2] = 1H SABRE hyperpolarization of neat pyridines at 6 mT, detected at 9.4 T; details: SABRE at ~6 mT, ortho-1H, ~90 mM catalyst
[3] = Low-field (ex situ) 1H SABRE hyperpolarization of nicotinamide with Ir-IMes catalyst, detected at 9.4 T; details: SABRE at 6 ± 4 mT
[4] = listed as natural abundance (n.a.) Py

With c1ccncc1 [Py-d5 (99.5% d)] the “^15N T1 9.4 T” value [1] was 74.3(2.9) s, the “^15N effective T1 μT” value [1] was 2.2(0.1) s and the “^15N effective T1 μT” value ([1]; listed as Py-d5) was 2.2 ± 0.1 s. The “^15N ε @ 9.4 T (SABRE-SHEATH signal enhancement)” value [1] was roughly −850 and the “^1H ε @ 9.4 T (1H SABRE signal enhancement)” value [2] was roughly −60.

In the case of NC(=O)c1cccnc1 [Nicotinamide], the “Integral polarization enhancement, Ha” value ([3]; D2O (100%)) is reported as −33.29, the “Integral polarization enhancement, Hb” value ([3]; D2O (100%)) is reported as −29.52 and the “Integral polarization enhancement, Hc” value ([3]; D2O (100%)) is reported as −23.95. The “Integral polarization enhancement, Hd” value ([3]; D2O (100%)) was −11.04, the “Integral polarization enhancement, Ha” value ([3]; Ethanol-d6 (33%), D2O (67%)) was −56.28 and the “Integral polarization enhancement, Hb” value ([3]; Ethanol-d6 (33%), D2O (67%)) was −42.55. For the same compound, the “Integral polarization enhancement, Hc” value ([3]; Ethanol-d6 (33%), D2O (67%)) was −33.26, the “Integral polarization enhancement, Hd” value ([3]; Ethanol-d6 (33%), D2O (67%)) was 10.00 and the “Integral polarization enhancement, Ha” value ([3]; Ethanol-d6 (50%), D2O (50%)) was −74.06. The “Integral polarization enhancement, Hb” value ([3]; Ethanol-d6 (50%), D2O (50%)) was −54.75, the “Integral polarization enhancement, Hc” value ([3]; Ethanol-d6 (50%), D2O (50%)) was −40.01 and the “Integral polarization enhancement, Hd” value ([3]; Ethanol-d6 (50%), D2O (50%)) was 9.27. For the same compound, the “Integral polarization enhancement, Ha” value ([3]; Ethanol-d6 (100%)) was −88.11, the “Integral polarization enhancement, Hb” value ([3]; Ethanol-d6 (100%)) was −71.16 and the “Integral polarization enhancement, Hc” value ([3]; Ethanol-d6 (100%)) was −64.67. For the same compound, the “Integral polarization enhancement, Hd” value ([3]; Ethanol-d6 (100%)) was 9.05.

For c1ccncc1 [Py (n.a.), pyridine], the “^15N T1 9.4 T” value [1] was 60.8(0.6) s, the “^15N ε greater in n.a. Py with respect to ^15N-Py” value ([1]; limited access to para-H2) was 88 fold and the “^15N effective T1 μT” value [1] was 5.5(0.5) s. For the same compound, the “^15N effective T1 μT” value ([1]; listed as n.a. Py) was 5.5 ± 0.5 s, the “^15N ε @ 9.4 T (SABRE-SHEATH signal enhancement)” value [1] was roughly −2900 and the “^15N ε @ 9.4 T (SABRE-SHEATH signal enhancement)” value [1, 4] was “up to 2900”. For the same compound, the “P^15N (15N polarization)” value ([1]; neat n.a. Py, SABRE-SHEATH) was “≈ 1%”, the “^1H ε @ 9.4 T (1H SABRE signal enhancement)” value [2] was roughly −4.2 and the “^1H ε @ 9.4 T (1H SABRE signal enhancement)” value [2, 4] was “≈ 4”.

For c1cc[15n]cc1 [^15N—Py], the “^15N T1 9.4 T” value [1] was 66.8(0.5) s, the “^15N effective T1 μT” value [1] was 10.2 ± 1.1 s and the “^15N ε @ 9.4 T (SABRE-SHEATH signal enhancement)” value [1] was roughly −33. For the same compound, the “^15N ε @ 9.4 T (SABRE-SHEATH signal enhancement)” value ([1]; listed as 15N-Py) was “≈ 33” and the “^1H ε @ 9.4 T (1H SABRE signal enhancement)” value [2] was roughly −0.3.

Reference: US9790245B2 (Vanderbilt University, priority 2014, dated 2017)
